Reference: PubChem BioAssay AID250 (DTP/NCI, 2004)
The list shows only some results of the screen, not a fair sample: it gathers tests that were run many times, whatever their T/C, doses with no T/C, and many T/C values between a quarter and a half above the control. Other doses and runs of a compound stand elsewhere. T/C gives the treated animals as a percentage of the vehicle group. Some entries give survivors of the animals treated and no T/C: the source files T/C as zero there, which appears to mark a toxic dose or a test without result, not a measured value. Survivors were counted at the toxicity check, usually on the fifth day, unless a day is given; later deaths do not show. Schedules are NCI's codes, read here as Q, the interval in days (D) or hours (H), X, the number of doses. Some entries hold several experiments; the results are listed from low to high. Signs of the kind (2×) stand for listed records that agree. Where survival is the endpoint, this PubChem deposit counts one and a half times the control or more as active, and values a quarter to a half above the control carry no call in these data; other NCI protocols may use other cut-offs. Some T/C values carry the count of animals alive at the toxicity check (mostly the fifth day); where none is given, no animal had died by that day.

System: BDF1 mice, L1210 leukemia sc, survival T/C
Assay: NCI In Vivo Anticancer Drug Screen. Data for tumor model L1210 Leukemia (subcutaneous) in B6D2F1 (BDF1) mice
Conditions: T/C endpoint: median survival time, vehicle: saline, higher T/C = longer survival
Outline: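 Expressed as T/C: measurement in compound-treated, tumor-bearing mice relative to vehicle-treated control mice, based on survival or tumor size.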

In the case of O=P1(N(CCCl)CCCl)NCCCO1 (stereo unspecified), the T/C (dose: 200.0 mg/kg/injection, schedule: Q08DX003 (sc), evaluated on day 7) is reported as 276, 282, 349, 358 % of control, the T/C (dose: 200.0 mg/kg/injection, schedule: Q08DX003 (sc), evaluated on day 32) is reported as 275 % of control and the T/C (dose: 200.0 mg/kg/injection, schedule: Q08DX003 (sc), evaluated on day 34) is reported as 272 % of control. For the same compound, the T/C (dose: 200.0 mg/kg/injection, schedule: Q08DX003 (sc), evaluated on day 42) was 344 % of control, the T/C (dose: 200.0 mg/kg/injection, schedule: Q08DX003 (sc), evaluated on day 43) was 358 % of control and the T/C (dose: 300.0 mg/kg/injection, schedule: Q01DX001 (sc), evaluated on day 6) was 245 % of control. For the same compound, the T/C (dose: 300.0 mg/kg/injection, schedule: Q01DX001 (sc), evaluated on day 7) was 104, 109, 180, 223, 232, 277 % of control, the T/C (dose: 300.0 mg/kg/injection, schedule: Q01DX001 (sc), evaluated on day 30) was 180 and 232 % of control and the T/C (dose: 300.0 mg/kg/injection, schedule: Q01DX001 (sc), evaluated on day 31) was 266 % of control. The T/C (dose: 300.0 mg/kg/injection, schedule: Q01DX001 (sc), evaluated on day 33) was 227 and 245 % of control, the T/C (dose: 300.0 mg/kg/injection, schedule: Q01DX001 (sc), evaluated on day 35) was 111 % of control [6 of 8 alive] and the T/C (dose: 300.0 mg/kg/injection, schedule: Q01DX001 (sc), evaluated on day 36) was 277 % of control. The T/C (dose: 300.0 mg/kg/injection, schedule: Q01DX001 (sc), evaluated on day 40) was 120 % of control, the survivor count (dose: 300.0 mg/kg/injection, schedule: Q01DX001 (sc)) was 4 of 8 and the T/C (dose: 300.0 mg/kg/injection, schedule: Q01DX001 (sc), run until all animals had died) was 190 and 270 % of control. The T/C (dose: 300.0 mg/kg/injection, schedule: Q07DX003 (sc), evaluated on day 6) was 235 and 247 % of control, the T/C (dose: 300.0 mg/kg/injection, schedule: Q07DX003 (sc), evaluated on day 7) was 104, 112, 172, 207, 258 % of control and the T/C (dose: 300.0 mg/kg/injection, schedule: Q07DX003 (sc), evaluated on day 30) was 172 and 207 % of control. For the same compound, the T/C (dose: 300.0 mg/kg/injection, schedule: Q07DX003 (sc), evaluated on day 33) was 230 % of control, the T/C (dose: 300.0 mg/kg/injection, schedule: Q07DX003 (sc), evaluated on day 35) was 105 % of control [7 of 8 alive] and the T/C (dose: 300.0 mg/kg/injection, schedule: Q07DX003 (sc), evaluated on day 36) was 233 % of control. For the same compound, the T/C (dose: 300.0 mg/kg/injection, schedule: Q07DX003 (sc), evaluated on day 40) was 315 % of control, the T/C (dose: 300.0 mg/kg/injection, schedule: Q07DX003 (sc), evaluated on day 45) was 252 % of control and the T/C (dose: 300.0 mg/kg/injection, schedule: Q08DX002 (sc), evaluated on day 7) was 209 and 219 % of control. For the same compound, the T/C (dose: 300.0 mg/kg/injection, schedule: Q08DX002 (sc), evaluated on day 32) was 216 % of control, the T/C (dose: 300.0 mg/kg/injection, schedule: Q08DX002 (sc), evaluated on day 36) was 211 % of control and the survivor count (dose: 400.0 mg/kg/injection, schedule: Q01DX001 (ip)) was 1 of 8. For the same compound, the T/C (dose: 400.0 mg/kg/injection, schedule: Q01DX001 (sc), evaluated on day 7) was 98, 104, 106, 107, 111, 191, 236, 237, 269, 270, 277 % of control, the T/C (dose: 400.0 mg/kg/injection, schedule: Q01DX001 (sc), evaluated on day 9) was 193 % of control and the T/C (dose: 400.0 mg/kg/injection, schedule: Q01DX001 (sc), evaluated on day 21) was 100 % of control. The T/C (dose: 400.0 mg/kg/injection, schedule: Q01DX001 (sc), evaluated on day 31) was 272 % of control, the T/C (dose: 400.0 mg/kg/injection, schedule: Q01DX001 (sc), evaluated on day 32) was 260 % of control and the T/C (dose: 400.0 mg/kg/injection, schedule: Q01DX001 (sc), evaluated on day 34) was 100 [8 of 10 alive] and 266 % of control [7 of 8 alive]. For the same compound, the T/C (dose: 400.0 mg/kg/injection, schedule: Q01DX001 (sc), evaluated on day 36) was 183 % of control [7 of 8 alive], the T/C (dose: 400.0 mg/kg/injection, schedule: Q01DX001 (sc), evaluated on day 40) was 105 and 105 % of control [6 of 8 alive] and the T/C (dose: 400.0 mg/kg/injection, schedule: Q01DX001 (sc), evaluated on day 43) was 105 [6 of 8 alive] and 236 % of control. The T/C (dose: 400.0 mg/kg/injection, schedule: Q01DX001 (sc), evaluated on day 60) was 160 [6 of 8 alive] and 244 % of control, the T/C (dose: 400.0 mg/kg/injection, schedule: Q01DX001 (sc), run until all animals had died) was 208 % of control and the T/C (dose: 400.0 mg/kg/injection, schedule: Q08DX002 (sc), evaluated on day 7) was 103 and 118 % of control. For the same compound, the T/C (dose: 400.0 mg/kg/injection, schedule: Q08DX002 (sc), evaluated on day 21) was 100 % of control, the T/C (dose: 400.0 mg/kg/injection, schedule: Q08DX002 (sc), evaluated on day 36) was 122 % of control [7 of 8 alive] and the T/C (dose: 400.0 mg/kg/injection, schedule: Q08DX002 (sc), evaluated on day 43) was 116 % of control. The T/C (dose: 400.0 mg/kg/injection, schedule: Q08DX003 (sc), evaluated on day 7) was 168, 170, 203, 206 % of control, the T/C (dose: 400.0 mg/kg/injection, schedule: Q08DX003 (sc), evaluated on day 32) was 160 % of control and the T/C (dose: 400.0 mg/kg/injection, schedule: Q08DX003 (sc), evaluated on day 34) was 205 % of control [7 of 8 alive]. The T/C (dose: 400.0 mg/kg/injection, schedule: Q08DX003 (sc), evaluated on day 42) was 166 % of control [8 of 10 alive], the T/C (dose: 400.0 mg/kg/injection, schedule: Q08DX003 (sc), evaluated on day 43) was 203 % of control and the survivor count (dose: 500.0 mg/kg/injection, schedule: Q01DX001 (ip)) was 0 of 8. For the same compound, the T/C (dose: 500.0 mg/kg/injection, schedule: Q01DX001 (sc), evaluated on day 6) was 252 % of control, the T/C (dose: 500.0 mg/kg/injection, schedule: Q01DX001 (sc), evaluated on day 7) was 63, 67, 68, 71, 96, 183, 245 % of control and the T/C (dose: 500.0 mg/kg/injection, schedule: Q01DX001 (sc), evaluated on day 30) was 183 % of control. The T/C (dose: 500.0 mg/kg/injection, schedule: Q01DX001 (sc), evaluated on day 32) was 244 % of control, the T/C (dose: 500.0 mg/kg/injection, schedule: Q01DX001 (sc), evaluated on day 33) was 255 % of control and the survivor count (dose: 500.0 mg/kg/injection, schedule: Q01DX001 (sc)) was 0 of 8, 2 of 8, 3 of 8 (3×), 4 of 8 (2×), 5 of 8. For the same compound, the T/C (dose: 500.0 mg/kg/injection, schedule: Q01DX001 (sc), run until all animals had died) was 114 % of control [6 of 8 alive], the T/C (dose: 500.0 mg/kg/injection, schedule: Q07DX003 (sc), evaluated on day 7) was 69 and 209 % of control and the T/C (dose: 500.0 mg/kg/injection, schedule: Q07DX003 (sc), evaluated on day 40) was 110 % of control. For the same compound, the T/C (dose: 500.0 mg/kg/injection, schedule: Q07DX003 (sc), evaluated on day 45) was 210 % of control, the survivor count (dose: 600.0 mg/kg/injection, schedule: Q01DX001 (ip)) was 0 of 8 and the survivor count (dose: 600.0 mg/kg/injection, schedule: Q01DX001 (sc)) was 0 of 8. The survivor count (dose: 625.0 mg/kg/injection, schedule: Q01DX001 (sc)) was 0 of 8.
